Some of the results follow. Most values lie at the level of the controls, where differences are scatter.

Amino acid sequences for entries named in this document (tags omitted). A change or cut given only in a name is not applied to a line headed by its entry.
UniProt P97379: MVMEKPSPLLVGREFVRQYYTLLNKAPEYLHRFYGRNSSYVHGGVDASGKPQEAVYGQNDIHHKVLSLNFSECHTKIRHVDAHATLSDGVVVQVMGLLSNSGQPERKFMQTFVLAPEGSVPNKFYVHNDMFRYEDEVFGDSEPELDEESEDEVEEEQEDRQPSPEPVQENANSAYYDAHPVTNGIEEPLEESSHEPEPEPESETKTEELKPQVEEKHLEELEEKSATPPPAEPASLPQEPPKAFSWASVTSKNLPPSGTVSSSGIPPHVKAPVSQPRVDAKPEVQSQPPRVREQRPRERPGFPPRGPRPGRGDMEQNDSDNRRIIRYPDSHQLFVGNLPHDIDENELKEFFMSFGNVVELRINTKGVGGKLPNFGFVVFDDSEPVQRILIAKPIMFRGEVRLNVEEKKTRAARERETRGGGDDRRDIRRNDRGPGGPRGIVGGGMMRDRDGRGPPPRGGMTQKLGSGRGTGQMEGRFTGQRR
UniProt P70452: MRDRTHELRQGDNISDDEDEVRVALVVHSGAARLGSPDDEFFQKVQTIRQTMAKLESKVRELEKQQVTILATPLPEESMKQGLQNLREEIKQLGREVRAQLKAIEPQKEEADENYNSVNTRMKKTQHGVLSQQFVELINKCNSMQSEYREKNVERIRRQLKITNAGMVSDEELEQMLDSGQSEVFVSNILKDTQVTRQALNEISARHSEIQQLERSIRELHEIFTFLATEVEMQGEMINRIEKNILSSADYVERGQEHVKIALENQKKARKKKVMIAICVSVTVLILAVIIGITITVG
UniProt P70181: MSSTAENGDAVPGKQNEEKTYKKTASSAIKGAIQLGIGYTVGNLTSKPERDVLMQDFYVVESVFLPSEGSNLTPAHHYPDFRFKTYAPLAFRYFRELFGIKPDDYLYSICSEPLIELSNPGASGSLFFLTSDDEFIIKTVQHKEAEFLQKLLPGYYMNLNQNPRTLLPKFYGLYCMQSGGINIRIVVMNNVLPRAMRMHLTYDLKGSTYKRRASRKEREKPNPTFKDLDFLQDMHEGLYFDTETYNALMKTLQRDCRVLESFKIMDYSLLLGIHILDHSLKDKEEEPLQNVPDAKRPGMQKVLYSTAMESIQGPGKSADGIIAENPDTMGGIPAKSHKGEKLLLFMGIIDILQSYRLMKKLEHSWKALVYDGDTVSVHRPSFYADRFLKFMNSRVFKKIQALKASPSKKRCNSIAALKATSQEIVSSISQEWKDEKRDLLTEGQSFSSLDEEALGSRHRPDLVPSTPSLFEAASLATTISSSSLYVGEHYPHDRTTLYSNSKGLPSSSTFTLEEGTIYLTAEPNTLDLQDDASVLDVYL
UniProt P97930: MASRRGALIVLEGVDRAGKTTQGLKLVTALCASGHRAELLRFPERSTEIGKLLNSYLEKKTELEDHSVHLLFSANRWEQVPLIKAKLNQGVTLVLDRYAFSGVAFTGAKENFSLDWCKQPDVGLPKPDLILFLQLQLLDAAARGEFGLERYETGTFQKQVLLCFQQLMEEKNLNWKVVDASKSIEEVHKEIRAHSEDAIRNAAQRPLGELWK
UniProt P70324: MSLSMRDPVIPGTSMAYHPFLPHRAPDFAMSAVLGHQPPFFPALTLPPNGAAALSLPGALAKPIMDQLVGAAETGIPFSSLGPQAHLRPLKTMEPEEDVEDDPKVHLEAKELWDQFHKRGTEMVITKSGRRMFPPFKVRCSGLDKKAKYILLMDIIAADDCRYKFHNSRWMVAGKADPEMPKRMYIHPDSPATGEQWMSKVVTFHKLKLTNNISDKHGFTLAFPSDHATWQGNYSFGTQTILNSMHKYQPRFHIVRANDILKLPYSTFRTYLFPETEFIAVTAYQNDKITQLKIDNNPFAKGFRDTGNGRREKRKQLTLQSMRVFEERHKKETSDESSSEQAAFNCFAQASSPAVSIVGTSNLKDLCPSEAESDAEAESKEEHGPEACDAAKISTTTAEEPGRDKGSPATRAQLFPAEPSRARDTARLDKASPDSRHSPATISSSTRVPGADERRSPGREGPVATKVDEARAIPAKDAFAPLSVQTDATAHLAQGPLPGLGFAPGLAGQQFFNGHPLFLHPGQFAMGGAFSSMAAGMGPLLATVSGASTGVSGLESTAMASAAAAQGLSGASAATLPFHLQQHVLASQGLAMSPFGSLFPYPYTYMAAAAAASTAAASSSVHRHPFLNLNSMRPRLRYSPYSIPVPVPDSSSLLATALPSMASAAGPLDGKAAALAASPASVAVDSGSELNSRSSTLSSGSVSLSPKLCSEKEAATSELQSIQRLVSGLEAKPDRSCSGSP
UniProt P70303: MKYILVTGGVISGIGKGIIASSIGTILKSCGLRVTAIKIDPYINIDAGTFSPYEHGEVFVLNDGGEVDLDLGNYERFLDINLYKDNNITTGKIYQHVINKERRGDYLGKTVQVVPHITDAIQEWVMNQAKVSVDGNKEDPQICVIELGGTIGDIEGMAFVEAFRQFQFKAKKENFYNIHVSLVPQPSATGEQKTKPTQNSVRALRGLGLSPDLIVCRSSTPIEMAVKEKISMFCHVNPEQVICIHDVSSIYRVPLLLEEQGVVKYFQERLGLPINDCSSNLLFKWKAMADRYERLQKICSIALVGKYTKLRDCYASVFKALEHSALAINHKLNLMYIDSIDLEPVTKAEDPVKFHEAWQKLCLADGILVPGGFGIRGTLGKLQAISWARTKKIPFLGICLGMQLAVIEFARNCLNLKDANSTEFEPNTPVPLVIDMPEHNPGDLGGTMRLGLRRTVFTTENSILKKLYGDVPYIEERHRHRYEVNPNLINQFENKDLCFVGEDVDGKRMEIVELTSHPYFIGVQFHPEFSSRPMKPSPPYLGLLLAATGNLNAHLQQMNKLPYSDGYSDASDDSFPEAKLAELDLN
UniProt P99029: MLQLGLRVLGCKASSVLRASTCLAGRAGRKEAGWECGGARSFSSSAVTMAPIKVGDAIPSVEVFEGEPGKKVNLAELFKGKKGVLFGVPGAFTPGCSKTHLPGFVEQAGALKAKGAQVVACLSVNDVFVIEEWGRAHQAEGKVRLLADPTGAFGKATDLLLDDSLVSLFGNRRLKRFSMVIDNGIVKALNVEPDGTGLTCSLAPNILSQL
UniProt P70700, whole entry: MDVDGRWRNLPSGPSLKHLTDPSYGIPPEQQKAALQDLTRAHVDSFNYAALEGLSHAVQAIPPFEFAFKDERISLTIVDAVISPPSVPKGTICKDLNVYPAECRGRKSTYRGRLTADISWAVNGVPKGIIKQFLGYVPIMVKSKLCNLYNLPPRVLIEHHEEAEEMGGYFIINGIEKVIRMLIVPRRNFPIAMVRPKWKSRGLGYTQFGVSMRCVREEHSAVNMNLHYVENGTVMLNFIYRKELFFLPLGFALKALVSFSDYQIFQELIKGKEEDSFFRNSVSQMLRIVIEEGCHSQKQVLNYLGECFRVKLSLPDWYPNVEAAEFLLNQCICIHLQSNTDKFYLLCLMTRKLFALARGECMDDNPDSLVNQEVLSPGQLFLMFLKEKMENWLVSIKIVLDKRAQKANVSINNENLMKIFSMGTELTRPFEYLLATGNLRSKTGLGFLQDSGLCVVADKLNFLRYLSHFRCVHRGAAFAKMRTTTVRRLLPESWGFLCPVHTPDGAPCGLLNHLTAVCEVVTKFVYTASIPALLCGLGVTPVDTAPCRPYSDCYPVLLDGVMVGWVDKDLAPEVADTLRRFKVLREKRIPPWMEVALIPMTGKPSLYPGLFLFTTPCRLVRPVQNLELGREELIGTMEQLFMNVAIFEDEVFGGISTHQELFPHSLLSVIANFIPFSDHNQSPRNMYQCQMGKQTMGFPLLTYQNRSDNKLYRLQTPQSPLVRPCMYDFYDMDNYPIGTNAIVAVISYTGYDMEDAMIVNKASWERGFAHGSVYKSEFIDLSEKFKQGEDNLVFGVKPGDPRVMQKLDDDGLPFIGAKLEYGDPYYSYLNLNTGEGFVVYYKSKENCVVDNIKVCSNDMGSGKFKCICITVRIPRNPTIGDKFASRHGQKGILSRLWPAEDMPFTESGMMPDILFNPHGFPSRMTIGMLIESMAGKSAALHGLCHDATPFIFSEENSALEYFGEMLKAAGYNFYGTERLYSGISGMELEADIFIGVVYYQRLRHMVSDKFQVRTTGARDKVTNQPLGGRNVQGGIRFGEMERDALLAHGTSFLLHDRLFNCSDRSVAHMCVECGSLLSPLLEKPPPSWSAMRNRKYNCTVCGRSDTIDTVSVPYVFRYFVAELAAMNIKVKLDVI
UniProt Q01339: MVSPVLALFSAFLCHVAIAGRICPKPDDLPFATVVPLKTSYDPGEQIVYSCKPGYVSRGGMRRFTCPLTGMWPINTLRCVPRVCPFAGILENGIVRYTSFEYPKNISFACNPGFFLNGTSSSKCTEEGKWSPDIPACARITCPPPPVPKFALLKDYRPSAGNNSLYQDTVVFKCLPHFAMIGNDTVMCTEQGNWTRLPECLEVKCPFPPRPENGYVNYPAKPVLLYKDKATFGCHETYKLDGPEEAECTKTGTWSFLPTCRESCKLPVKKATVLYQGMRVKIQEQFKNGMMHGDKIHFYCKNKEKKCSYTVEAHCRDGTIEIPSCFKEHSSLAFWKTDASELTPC
UniProt P63254: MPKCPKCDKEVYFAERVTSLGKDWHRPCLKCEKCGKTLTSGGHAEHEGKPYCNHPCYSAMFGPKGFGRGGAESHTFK
UniProt Q00262: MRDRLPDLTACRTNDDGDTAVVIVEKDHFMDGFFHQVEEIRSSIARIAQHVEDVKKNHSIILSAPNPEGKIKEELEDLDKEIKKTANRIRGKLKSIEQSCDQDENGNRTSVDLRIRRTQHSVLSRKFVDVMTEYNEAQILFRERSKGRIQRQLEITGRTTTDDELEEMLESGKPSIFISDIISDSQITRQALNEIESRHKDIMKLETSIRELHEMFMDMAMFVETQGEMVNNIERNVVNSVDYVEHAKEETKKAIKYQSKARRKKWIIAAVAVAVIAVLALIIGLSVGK
UniProt Q00519, whole entry: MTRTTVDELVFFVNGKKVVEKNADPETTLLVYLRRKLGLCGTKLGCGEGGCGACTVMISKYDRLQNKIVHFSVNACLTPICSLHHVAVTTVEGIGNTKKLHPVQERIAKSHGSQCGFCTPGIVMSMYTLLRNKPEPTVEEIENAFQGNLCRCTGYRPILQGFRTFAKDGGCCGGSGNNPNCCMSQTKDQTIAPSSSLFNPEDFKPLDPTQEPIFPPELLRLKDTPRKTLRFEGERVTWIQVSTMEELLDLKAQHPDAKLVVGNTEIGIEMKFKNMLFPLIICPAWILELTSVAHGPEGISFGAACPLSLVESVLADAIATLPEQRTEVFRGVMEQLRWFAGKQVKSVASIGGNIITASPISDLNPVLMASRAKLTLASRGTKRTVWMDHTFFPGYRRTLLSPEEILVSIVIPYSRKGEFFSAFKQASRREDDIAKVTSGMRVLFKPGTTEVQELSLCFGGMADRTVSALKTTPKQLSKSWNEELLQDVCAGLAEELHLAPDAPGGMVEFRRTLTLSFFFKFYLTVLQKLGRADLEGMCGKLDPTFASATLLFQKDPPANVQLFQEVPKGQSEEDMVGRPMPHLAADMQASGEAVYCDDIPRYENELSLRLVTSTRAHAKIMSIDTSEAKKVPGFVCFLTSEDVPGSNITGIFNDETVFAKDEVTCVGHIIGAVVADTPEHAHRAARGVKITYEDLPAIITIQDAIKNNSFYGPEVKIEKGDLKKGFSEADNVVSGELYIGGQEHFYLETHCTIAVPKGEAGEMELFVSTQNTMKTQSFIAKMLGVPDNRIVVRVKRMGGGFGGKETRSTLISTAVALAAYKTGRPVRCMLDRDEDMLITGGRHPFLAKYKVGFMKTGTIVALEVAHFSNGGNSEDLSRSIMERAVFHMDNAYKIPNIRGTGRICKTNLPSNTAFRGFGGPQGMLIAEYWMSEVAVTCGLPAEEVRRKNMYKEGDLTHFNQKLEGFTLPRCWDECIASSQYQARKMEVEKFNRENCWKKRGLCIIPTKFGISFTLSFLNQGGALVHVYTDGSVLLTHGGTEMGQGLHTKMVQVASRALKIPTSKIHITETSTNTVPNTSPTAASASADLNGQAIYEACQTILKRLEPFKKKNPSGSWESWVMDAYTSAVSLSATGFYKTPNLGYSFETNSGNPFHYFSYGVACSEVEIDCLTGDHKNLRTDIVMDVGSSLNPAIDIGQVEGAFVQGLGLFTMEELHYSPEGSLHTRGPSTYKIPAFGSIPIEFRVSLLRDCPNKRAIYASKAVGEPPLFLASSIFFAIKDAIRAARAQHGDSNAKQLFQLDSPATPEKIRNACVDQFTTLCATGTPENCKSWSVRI
UniProt P97429: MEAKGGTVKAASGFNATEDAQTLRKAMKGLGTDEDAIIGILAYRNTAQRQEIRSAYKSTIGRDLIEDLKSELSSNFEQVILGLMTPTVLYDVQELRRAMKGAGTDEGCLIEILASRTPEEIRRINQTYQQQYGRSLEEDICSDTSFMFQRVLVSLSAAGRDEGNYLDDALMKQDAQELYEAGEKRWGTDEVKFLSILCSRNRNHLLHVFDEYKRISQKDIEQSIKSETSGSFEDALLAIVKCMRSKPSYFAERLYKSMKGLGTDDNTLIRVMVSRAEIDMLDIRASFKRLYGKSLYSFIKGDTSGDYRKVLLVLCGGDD

The results in this text go back to the supplement of paper PMC12819154, “High-throughput peptide-centric local stability assay extends protein–ligand identification to membrane proteins, tissues and bacteria” (Nature Structural & Molecular Biology, 2025).

Compound in the assay: CN[C@@H]1C[C@H]2O[C@@](C)([C@@H]1OC)n1c3ccccc3c3c4c(c5c6ccccc6n2c5c31)C(=O)NC4 [staurosporine]
Nature of the assay: log2 fold change of tryptic peptide abundance, ligand vs vehicle (limited proteolysis) (log2 ratio); higher = more trypsin-susceptible (destabilized). The conditions noted are these: ligand concentration: 20 uM; sample: mouse liver crude lysate; replicate design: treated separately.
Regarding “UniProt P70255 (peptide sequence: TLPSTSSSGSK, peptide start residue: 270)”, the log2 fold change is -0.248.
On to “UniProt P97379 (peptide sequence: QYYTLLNK, peptide start residue: 18)”, for which the log2 fold change amounted to 0.167.
Turning to “UniProt P97384 (peptide sequence: SELDLLDIR, peptide start residue: 460)”, the log2 fold change was -0.568.
For “UniProt P97863 (peptide sequence: DQDMSSPTTMK, peptide start residue: 307)” the value was 0.135; for “UniProt P70121 (peptide sequence: YDALSEHNLK, peptide start residue: 114)”, -0.287.
The value for “UniProt Q02566 (peptide sequence: NLMRLQDLVDK, peptide start residue: 1862)” was 0.0311.
The value for “UniProt P70452 (peptide sequence: KTQHGVLSQQFVELINK, peptide start residue: 124)” was -0.215; that for “UniProt P70181 (peptide sequence: KLEHSWK, peptide start residue: 399)” was -0.341; that for “UniProt P97930 (peptide sequence: YETGTFQK, peptide start residue: 151)” was 0.213.
On to “UniProt P70324 (peptide sequence: EGPVATKVDEAR, peptide start residue: 460)”, for which the log2 fold change is -0.542.
With “UniProt P70303 (peptide sequence: IYQHVINK, peptide start residue: 93)”, the log2 fold change is -1.37.
For “UniProt P70459 (peptide sequence: ARPPGPPELGAFRGPPLAR, peptide start residue: 206)” the value was -0.301.
For “UniProt Q01338 (peptide sequence: GKTRASQVK, peptide start residue: 334)” the value was 0.0153.
For “UniProt P99029 (peptide sequence: RFSMVIDNGIVK, peptide start residue: 176)” the value was -0.157.
“UniProt P97287 (peptide sequence: DSKPLGEAGAAGR, peptide start residue: 176)”: the log2 fold change is -0.372.
“UniProt P70700 (peptide sequence: ANVSINNENLMK, peptide start residue: 407)”: the log2 fold change came to 0.383.
The value for “UniProt P99026 (peptide sequence: AGHWAGGPAPGQFYR, peptide start residue: 9)” was 0.374; that for “UniProt P70168 (peptide sequence: ANFDKESER, peptide start residue: 207)” was -1.09; that for “UniProt Q01339 (peptide sequence: ATVLYQGMR, peptide start residue: 271)” was 0.255.
For “UniProt P97473 (peptide sequence: VTVGDTSCTGQGPSKK, peptide start residue: 66)” the value was 0.181; for “UniProt P63300 (peptide sequence: GDGYVDTESK, peptide start residue: 63)”, -0.104.
The value for “UniProt Q01149 (peptide sequence: SQPSLRPK, peptide start residue: 1130)” was 0.206; that for “UniProt P97471 (peptide sequence: WPDLHKNELK, peptide start residue: 101)” was 0.525; that for “UniProt Q01147 (peptide sequence: KILNDLSSDAPGVPR, peptide start residue: 122)” was -0.112.
Turning to “UniProt P63254 (peptide sequence: PKCPKCDK, peptide start residue: 2)”, the log2 fold change is -0.468.
For “UniProt P97855 (peptide sequence: INIPPQRGPRPIR, peptide start residue: 306)” the value was -0.595; for “UniProt P97313 (peptide sequence: LLEEALLR, peptide start residue: 2893)”, 0.233.
The value for “UniProt P80313 (peptide sequence: SLHDAIMIVRR, peptide start residue: 388)” was -0.55.
Take “UniProt Q00262 (peptide sequence: NVVNSVDYVEHAKEETK, peptide start residue: 236)”: the log2 fold change is 0.161.
For “UniProt Q00519 (peptide sequence: LEGFTLPR, peptide start residue: 962)” the value was -0.142; for “UniProt P97429 (peptide sequence: NHLLHVFDEYKR, peptide start residue: 203)”, 0.494; for “UniProt Q00977 (peptide sequence: NEFKDIEEIKTQK, peptide start residue: 113)”, -0.156.
For “UniProt P70271 (peptide sequence: LYCENHAK, peptide start residue: 300)” the value was -0.254.
The value for “UniProt P97355 (peptide sequence: NGSFANLR, peptide start residue: 55)” was 0.0303; that for “UniProt P86049 (peptide sequence: GFAFVEYESHR, peptide start residue: 180)” was 0.0303.
Take “UniProt P80318 (peptide sequence: IDDIVSGHK, peptide start residue: 519)”: the log2 fold change was -0.31.
